Data source: PubChem BioAssay AID1159584 (Peter MacCallum Cancer Centre, 2016)
The whole screen tested about 18,000 reagents; shown is a part drawn at random. Reagents against one gene are numbered here. Not stated in the record: the amount of reagent, the time to read-out.

- Test: 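Genes whose loss is lethal only together with E-cadherin loss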 (primary screen)
- System: human MCF10A breast epithelial cells, parental and CDH1-null
- Knock-down reagent: siRNA against human genes
- Detection: 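Cell viability by CellTiter-Glo ATP luminescence, each line scaled to the mean of mock wells across plates, then CDH1-null over parental ratio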
- Scale: CDH1-null / parental viability ratio: higher = CDH1-null cells survive relatively better than parental; CDH1-null viability vs mock: higher = more viable CDH1-null cells; parental viability vs mock: higher = more viable parental cells

target gene	reagent	CDH1-null / parental viability ratio	CDH1-null viability vs mock (fraction of mock)	parental viability vs mock (fraction of mock)
DDI2 (DDI proteasomal shuttling factor 2)	1	1.54	1.17	0.76
DDI2 (DDI proteasomal shuttling factor 2)	2	1.09	0.94	0.86
AMER2 (APC membrane recruitment protein 2)	1	1.6	0.64	0.4
OR6C76 (olfactory receptor family 6 subfamily C member 76)	1	1.15	0.9	0.78
CCDC170 (coiled-coil domain containing 170)	1	1.09	0.98	0.9
GBP6 (guanylate binding protein family member 6)	1	1.02	0.84	0.82
SLC14A1	1	0.83	0.68	0.82
PSMD10 (proteasome 26S subunit, non-ATPase 10)	1	0.98	0.82	0.84
IFNA6 (interferon alpha 6)	1	1.51	0.98	0.65
ETFBKMT	1	0.92	0.66	0.72
RRP1 (ribosomal RNA processing 1)	1	0.92	0.66	0.72
CACNG4 (calcium voltage-gated channel auxiliary subunit gamma 4)	1	1.28	1	0.78
KDM4A (lysine demethylase 4A)	1	0.85	0.46	0.54
USP8 (ubiquitin specific peptidase 8)	1	1.13	0.88	0.78
REV3L (REV3 like, DNA directed polymerase zeta catalytic subunit)	1	0.98	1.02	1.04
OSR2 (odd-skipped related transciption factor 2)	1	0.81	0.39	0.48
APOD (apolipoprotein D)	1	1.03	1.14	1.11
CMTM1 (CKLF like MARVEL transmembrane domain containing 1)	1	1.11	0.73	0.66
POMT2 (protein O-mannosyltransferase 2)	1	0.79	0.7	0.89
KBTBD3 (kelch repeat and BTB domain containing 3)	1	1.17	0.94	0.8
SEC22A (SEC22 homolog A, vesicle trafficking protein)	1	0.98	1.02	1.04
RCAN1 (regulator of calcineurin 1)	1	0.74	0.64	0.86
SFT2D3 (SFT2 domain containing 3)	1	1	0.8	0.8
ADGRF1 (adhesion G protein-coupled receptor F1)	1	1.37	1.07	0.78
NPBWR2 (neuropeptides B and W receptor 2)	1	0.84	0.7	0.83
ACTL6B (actin like 6B)	1	0.91	0.86	0.94
MCHR2 (melanin concentrating hormone receptor 2)	1	0.69	0.54	0.78
ATP13A2 (ATPase cation transporting 13A2)	1	0.72	0.65	0.9
NEK1 (NIMA related kinase 1)	1	0.78	0.58	0.74
MRPL15 (mitochondrial ribosomal protein L15)	1	1.11	0.63	0.57
TH (tyrosine hydroxylase)	1	1.04	0.93	0.89
SENP8 (SUMO peptidase family member, NEDD8 specific)	1	1.12	0.92	0.82
ABO	1	0.79	0.74	0.94
HLTF (helicase like transcription factor)	1	0.82	0.51	0.62
C1orf53 (chromosome 1 open reading frame 53)	1	1.12	0.74	0.66
SOD2 (superoxide dismutase 2)	1	1.11	0.82	0.74
DISP2 (dispatched RND transporter family member 2)	1	1.07	0.43	0.4
PPA2 (inorganic pyrophosphatase 2)	1	1.18	0.92	0.78
DLG4 (discs large MAGUK scaffold protein 4)	1	0.85	0.64	0.75
KLRC3 (killer cell lectin like receptor C3)	1	1.03	0.61	0.59
ZMYND11 (zinc finger MYND-type containing 11)	1	1	0.96	0.96
SYT3 (synaptotagmin 3)	1	1.05	0.84	0.8
PCYT2 (phosphate cytidylyltransferase 2, ethanolamine)	1	0.8	0.86	1.07
APOLD1 (apolipoprotein L domain containing 1)	1	0.89	0.76	0.85
ELP6 (elongator acetyltransferase complex subunit 6)	1	0.86	0.74	0.86
DLAT (dihydrolipoamide S-acetyltransferase)	1	1.01	0.91	0.9
RAMP1 (receptor activity modifying protein 1)	1	0.95	0.97	1.02
MAST3 (microtubule associated serine/threonine kinase 3)	1	0.82	0.75	0.92
SLC25A46	1	0.74	0.74	1
ADAMTS18 (ADAM metallopeptidase with thrombospondin type 1 motif 18)	1	1.09	0.74	0.68
USP34 (ubiquitin specific peptidase 34)	1	1.19	0.96	0.81
PLAGL2 (PLAG1 like zinc finger 2)	1	1.26	0.98	0.78
PDCD6IP (programmed cell death 6 interacting protein)	1	0.87	0.79	0.91
MIR22HG (MIR22 host gene)	1	1.25	1.05	0.84
RADX (RPA1 related single stranded DNA binding protein, X-linked)	1	0.91	0.84	0.92
MTHFD1L	1	1.01	0.89	0.88
SEL1L3 (SEL1L family member 3)	1	0.87	0.78	0.9
ZNF124 (zinc finger protein 124)	1	1.24	1.07	0.86
OVCA2 (OVCA2 serine hydrolase domain containing)	1	0.83	0.69	0.83
LDHAL6B (lactate dehydrogenase A like 6B)	1	1.06	0.87	0.82
DAGLA (diacylglycerol lipase alpha)	1	0.91	0.84	0.92
NLGN4X (neuroligin 4 X-linked)	1	0.81	0.59	0.73
BPY2 (basic charge Y-linked 2)	1	1.02	0.94	0.92
KAT7 (lysine acetyltransferase 7)	1	1.47	1.03	0.7
PCP2 (Purkinje cell protein 2)	1	1.27	0.71	0.56
TAGLN2 (transgelin 2)	1	0.97	0.6	0.62
TRIM72 (tripartite motif containing 72)	1	0.85	0.68	0.8
KLK7 (kallikrein related peptidase 7)	1	1.33	0.96	0.72

No new results follow: an excerpt of the list.
target gene	reagent	CDH1-null / parental viability ratio	CDH1-null viability vs mock (fraction of mock)	parental viability vs mock (fraction of mock)
DAGLA (diacylglycerol lipase alpha)	1	0.91	0.84	0.92
NLGN4X (neuroligin 4 X-linked)	1	0.81	0.59	0.73
BPY2 (basic charge Y-linked 2)	1	1.02	0.94	0.92
KAT7 (lysine acetyltransferase 7)	1	1.47	1.03	0.7
PCP2 (Purkinje cell protein 2)	1	1.27	0.71	0.56
TAGLN2 (transgelin 2)	1	0.97	0.6	0.62
TRIM72 (tripartite motif containing 72)	1	0.85	0.68	0.8
KLK7 (kallikrein related peptidase 7)	1	1.33	0.96	0.72
